Results: PubChem BioAssay AID1508600 (Functional Genomics Laboratory (NCATS/FGL), 2020)
The campaign covered roughly 53,000 sequences. About 3,700 (7%) were called active.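 Rule for the calls: active = gene knockdowns whose robust z-score for IL-1 alpha signal is at least 2 or at most -2, so actives lie on both sides; inactive = the rest.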 This is one part of the list.

Assay: Components of the Cytosolic LPS Sensing Pathway: Gene Identification via Genome-wide siRNA Screen;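 note: robust z of the log signal after scaling to non-targeting control siRNA wells of the plate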
Details: RAW264.7 macrophages, IL-1a HTRF, actives lie on both sides, screened at 100 nM (by protocol), cells primed 5 h with Pam3CSK4 first
How it was run: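 Mouse macrophage line RAW264.7 is transfected with siRNA (100 nM final), grown 48h, primed with TLR ligand Pam3CSK4 5 h and given intracellular LipidA 24 h. IL-1a in supernatant is read by HTRF and viability by luminescence.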

With GGUGCGCUGUGUUGUUCAUTT against Bmper as the sequence, how does the z-score read?
The z-score was inactive: 1.81.

Which z-score does the source give for GGAAGAUGUUACUUCAAAGTT against Anln here?
Its z-score is inactive: 0.475.

Which z-score does the source give for GGACAUGACAUCCAAAGACTT against Prmt1 here?
Its z-score is inactive: -0.649.

For GGGCCUAAAGGACUUGGCUTT against Dlg4, which z-score is on record?
The z-score was inactive: -0.548.

For GCGAAACCGUGUUUCUCUATT against Skil, which z-score is on record?
The z-score was inactive: -1.25.

For GCCAAGAGGUUUUAUGGUUTT against Trim38, which z-score is on record?
Its z-score is inactive: -1.03.

With GCACAGCCUGGUCAAAAACTT against S100a16 as the sequence, how does the z-score read?
The z-score was inactive: -1.59.

With CCCUAUUGAUUCAACUUGGTT against Samt4 as the sequence, how does the z-score read?
Its z-score is inactive: 0.253.

With CCCAGCUCUACUUUUUCUCTT against Olfr971 as the sequence, how does the z-score read?
The z-score was inactive: -1.87.

For GCCUUUGUGUUACAAUAUGTT against Fermt2, which z-score is on record?
The z-score was inactive: 0.487.

With GCUCCAAUAACAUGAGUAGTT against Tmem151a as the sequence, how does the z-score read?
The z-score was inactive: 0.208.

Which z-score does the source give for GGAACAAAGGAUCUGUCUGTT against Sec23a here?
The z-score was inactive: 0.0636.

For CGCUCCUUUUUGUUAAUGCTT against Psmf1, which z-score is on record?
Its z-score is inactive: 0.594.

For CCGCUUCAAUGUCUACUGCTT against Bcan, which z-score is on record?
The z-score was inactive: 0.363.

For GCACCUAGACAAUAACUUATT against Selenof, which z-score is on record?
Its z-score is inactive: -0.782.

Which z-score does the source give for GCGAUGUUUGGAUGACUUATT against Efl1 here?
Its z-score is inactive: 0.423.

For CCUGCACUACUGGAUUGGATT against Vill, which z-score is on record?
The z-score was inactive: 0.265.

Which z-score does the source give for CCACUCUAAAGAGUUGUACTT against Surf1 here?
Its z-score is inactive: 1.3.

Which z-score does the source give for GGAAAUGAUCACAGCUGGGTT against Ccl20 here?
Its z-score is inactive: 0.992.

With GGGUUAGGCCAGUUCUGAUTT against Reg3d as the sequence, how does the z-score read?
Its z-score is active: -2.08.

With GCGCAAGUUGUGCAGAACUTT against Asb5 as the sequence, how does the z-score read?
Its z-score is inactive: 0.201.

Which z-score does the source give for GCCAAGAUUGUCAAAGAUCTT against Pgk1 here?
The z-score was inactive: -1.27.

For GGUAGAUUCUAAUUGUUCATT against Ciao2a, which z-score is on record?
The z-score was inactive: 0.992.

Which z-score does the source give for CCGGCUAGAAACCGUGAAUTT against Tsku here?
The z-score was inactive: 0.696.

Which z-score does the source give for GCGAUACCAGGGACUACAUTT against Zfp692 here?
The z-score was inactive: 1.75.

Which z-score does the source give for GGAGAGUUACGACGUAUUCTT against Ckb here?
The z-score was inactive: 0.23.

With GCGUGUCUUGCUCUUUUGATT against Usp22 as the sequence, how does the z-score read?
The z-score was inactive: -1.21.

Which z-score does the source give for GAGAUGGACAAUCUCAUGGTT against Pcp2 here?
The z-score was inactive: -1.03.

With GGACCUUCAGAAGCUGAUCTT against Cmss1 as the sequence, how does the z-score read?
Its z-score is inactive: -0.308.

For GGUCAAAAAAUAUUGAUGCTT against Itgav, which z-score is on record?
Its z-score is inactive: -1.05.

For GCUAUGUUGUUAAAACGAATT against Amotl2, which z-score is on record?
The z-score was inactive: 0.258.

Which z-score does the source give for GGCACGUACCAUUGAGAUATT against Ina here?
The z-score was inactive: 0.549.

For GGCAUCCAAUAAACAUAUUTT against Selplg, which z-score is on record?
Its z-score is inactive: -0.157.

For GGCAAAAGAAUCGUUCUCATT against Ppat, which z-score is on record?
Its z-score is inactive: -0.848.

For CCUAUCUUAUGAUGACAUATT against Erich3, which z-score is on record?
The z-score was inactive: -0.0224.

With AGAGACUAGGGAUGCAUCUTT against Olfr462 as the sequence, how does the z-score read?
The z-score was inactive: -0.306.

For GCAUCUUGUUUUAAUGACUTT against Car5b, which z-score is on record?
Its z-score is inactive: -0.0409.

For GGGACACCGUCAAUCUUUATT against Frzb, which z-score is on record?
The z-score was inactive: -0.269.

With GCCUCAAUUGUUUACUUAUTT against Edn2 as the sequence, how does the z-score read?
The z-score was inactive: 0.404.

With CCGCCCUGAUUAUUGCCAUTT against Edar as the sequence, how does the z-score read?
Its z-score is inactive: -0.179.

Which z-score does the source give for GCCAGUUGACCACUAUUGATT against Tox4 here?
The z-score was inactive: -0.764.

Which z-score does the source give for GGAAGAGACCAAAGUAUAATT against Map2k7 here?
The z-score was inactive: 0.318.

With CGUACAUCCUAAAAGUGGGTT against Pcdhac1 as the sequence, how does the z-score read?
The z-score was inactive: -0.613.

Which z-score does the source give for GGAUCUCUCUUUCCUCCUCTT against Gli1 here?
Its z-score is inactive: 0.0792.

For GGAUACUCGGGAUCUAGUATT against Anxa11, which z-score is on record?
The z-score was inactive: -1.44.

For CCGGUAUUCAAUAGCUCUCTT against Cybb, which z-score is on record?
Its z-score is inactive: -0.909.

With GCGACACCCUGAUCAUGAATT against Ascl3 as the sequence, how does the z-score read?
The z-score was inactive: -1.37.

Which z-score does the source give for GCCCACCGACUUUAUUAACTT against Tfap2d here?
Its z-score is inactive: 0.541.

Which z-score does the source give for CGAACUGAAGGUUUUCAAUTT against Knstrn here?
Its z-score is inactive: 0.422.

With CGGGAAUCCUAUCUAUCAATT against Smox as the sequence, how does the z-score read?
The z-score was inactive: 0.762.

With GCUACGUUAAGUGAAGAUATT against Acad9 as the sequence, how does the z-score read?
The z-score was inactive: 0.407.

For GCAACUUGGCUACAAUUACTT against Dct, which z-score is on record?
The z-score was inactive: 0.987.

For GCUUGAUGACUACCACUGATT against Rrp36, which z-score is on record?
The z-score was inactive: 0.496.

For GCCGAACUAUUGGCUCAAGTT against Gucy2e, which z-score is on record?
Its z-score is inactive: -0.692.
